Data published in PMC4653730.
No constants are given. Whether binding was seen depends on the method and setting.

Target: LexA-C58VirFmut (Agrobacterium tumefaciens C58-C1)
Experiment: two-hybrid; yeast strain L40 co-transformed with LexA fusions (pSTT91) and Gal4AD fusions (pGAD424); interaction read as histidine prototrophy, growth on SD-Leu-Trp-His, 2-3 days at 28 °C

B1: Gal4AD-VIP1 (protein, UniProt Q9MA75 1-341)
chain: MEGGGRGPNQTILSEIEHMPEAPRQRISHHRRARSETFFSGESIDDLLLFDPSDIDFSSLDFLNAPPPPQQSQQQPQASPMSVDSEETSSNGVVPPNSLPPKPEARFGRHVRSFSVDSDFFDDLGVTEEKFIATSSGEKKKGNHHHSRSNSMDGEMSSASFNIESILASVSGKDSGKKNMGMGGDRLAELALLDPKRAKRILANRQSAARSKERKIRYTGELERKVQTLQNEATTLSAQVTMLQRGTSELNTENKHLKMRLQALEQQAELRDALNEALRDELNRLKVVAGEIPQGNGNSYNRAQFSSQQSAMNQFGNKTNQQMSTNGQPSLPSYMDFTKRG
binding: no binding
